Experiment [1] addresses T1, c-Rel (human (endogenous in DLBCL cell lines MS, DB, LR, LP)) (UniProt Q04864).
T1 sequence: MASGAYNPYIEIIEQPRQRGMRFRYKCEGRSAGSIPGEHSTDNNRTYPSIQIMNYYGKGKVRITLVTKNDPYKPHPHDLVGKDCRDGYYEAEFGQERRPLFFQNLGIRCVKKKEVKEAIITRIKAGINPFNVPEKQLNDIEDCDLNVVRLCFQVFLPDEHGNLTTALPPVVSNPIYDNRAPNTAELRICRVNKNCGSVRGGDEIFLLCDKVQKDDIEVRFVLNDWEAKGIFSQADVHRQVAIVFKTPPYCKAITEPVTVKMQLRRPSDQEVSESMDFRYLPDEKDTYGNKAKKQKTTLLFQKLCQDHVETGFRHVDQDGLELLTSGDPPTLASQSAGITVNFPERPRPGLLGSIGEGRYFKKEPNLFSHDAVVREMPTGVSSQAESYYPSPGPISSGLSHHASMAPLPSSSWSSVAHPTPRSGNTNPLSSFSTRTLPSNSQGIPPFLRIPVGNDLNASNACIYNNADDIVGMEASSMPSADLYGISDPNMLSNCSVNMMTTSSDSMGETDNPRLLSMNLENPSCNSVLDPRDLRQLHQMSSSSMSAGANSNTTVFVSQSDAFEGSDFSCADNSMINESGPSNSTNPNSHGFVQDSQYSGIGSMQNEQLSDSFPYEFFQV
Nature of the experiment: co-IP; nuclear extract of MS and DB (GCB) and LR and LP (ABC) DLBCL cells; precipitated with p65, c-Rel, p52 and RelB antibodies, normal rabbit IgG as negative control; Western blot with p65, c-Rel, p52 and RelB antibodies.

Amino acid sequences for entries named in this document (tags omitted).
UniProt Q04206: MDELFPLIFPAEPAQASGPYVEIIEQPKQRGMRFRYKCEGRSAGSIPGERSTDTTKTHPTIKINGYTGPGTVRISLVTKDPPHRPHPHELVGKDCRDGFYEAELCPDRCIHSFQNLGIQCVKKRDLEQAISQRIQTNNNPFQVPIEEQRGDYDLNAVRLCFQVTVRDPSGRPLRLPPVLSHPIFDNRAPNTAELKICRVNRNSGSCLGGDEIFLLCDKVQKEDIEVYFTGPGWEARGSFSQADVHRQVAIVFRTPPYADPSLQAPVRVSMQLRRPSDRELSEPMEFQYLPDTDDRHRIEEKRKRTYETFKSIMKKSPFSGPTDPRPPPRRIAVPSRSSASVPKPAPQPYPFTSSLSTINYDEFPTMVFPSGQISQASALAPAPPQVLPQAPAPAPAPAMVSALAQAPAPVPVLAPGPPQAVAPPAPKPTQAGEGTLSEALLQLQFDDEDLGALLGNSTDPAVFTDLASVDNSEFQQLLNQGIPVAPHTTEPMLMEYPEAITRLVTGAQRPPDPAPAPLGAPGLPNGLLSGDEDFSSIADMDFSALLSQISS

In experiment [2] the target is T2, c-Rel (human (endogenous in DLBCL cell lines MS, DB, LR, LP)), Q04864.
T2 chain: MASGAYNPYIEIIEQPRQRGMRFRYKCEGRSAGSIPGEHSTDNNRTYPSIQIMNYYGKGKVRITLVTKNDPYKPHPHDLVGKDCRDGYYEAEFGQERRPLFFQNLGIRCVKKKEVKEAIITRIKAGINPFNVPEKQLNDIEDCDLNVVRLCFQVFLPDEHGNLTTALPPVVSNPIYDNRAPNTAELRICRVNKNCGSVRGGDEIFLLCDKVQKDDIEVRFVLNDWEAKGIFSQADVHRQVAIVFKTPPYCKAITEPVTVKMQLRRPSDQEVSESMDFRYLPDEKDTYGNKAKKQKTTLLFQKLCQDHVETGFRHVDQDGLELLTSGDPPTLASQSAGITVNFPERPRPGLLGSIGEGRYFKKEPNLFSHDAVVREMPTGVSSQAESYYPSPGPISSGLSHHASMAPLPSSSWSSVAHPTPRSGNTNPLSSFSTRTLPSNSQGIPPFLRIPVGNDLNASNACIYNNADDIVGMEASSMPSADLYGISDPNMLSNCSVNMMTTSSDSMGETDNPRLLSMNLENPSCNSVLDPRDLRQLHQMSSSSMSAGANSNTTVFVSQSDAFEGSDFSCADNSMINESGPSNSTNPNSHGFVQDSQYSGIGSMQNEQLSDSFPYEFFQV
The description is as above. The note with it: remark: other sources report otherwise.

These are yes or no findings as the source states them, for the method shown. In cells and extracts the contact can be indirect. Some entries that bind do so weakly or less than the wild type.

For the molecule p65 (from UniProt Q04206 1-551), the binding result in experiment [1] was “binds”.

B1: p52 (protein, UniProt Q00653 1-454)
chain: MESCYNPGLDGIIEYDDFKLNSSIVEPKEPAPETADGPYLVIVEQPKQRGFRFRYGCEGPSHGGLPGASSEKGRKTYPTVKICNYEGPAKIEVDLVTHSDPPRAHAHSLVGKQCSELGICAVSVGPKDMTAQFNNLGVLHVTKKNMMGTMIQKLQRQRLRSRPQGLTEAEQRELEQEAKELKKVMDLSIVRLRFSAFLRASDGSFSLPLKPVISQPIHDSKSPGASNLKISRMDKTAGSVRGGDEVYLLCDKVQKDDIEVRFYEDDENGWQAFGDFSPTDVHKQYAIVFRTPPYHKMKIERPVTVFLQLKRKRGGDVSDSKQFTYYPLVEDKEEVQRKRRKALPTFSQPFGGGSHMGGGSGGAAGGYGGAGGGGSLGFFPSSLAYSPYQSGAGPMGCYPGGGGGAQMAATVPSRDSGEEAAEPSAPSRTPQCEPQAPEMLQRAREYNARLFGLA
As for B1, the binding result in experiment [1] was “binds”.

B2: RelB, Q01201 1-579 (protein)
chain: MLRSGPASGPSVPTGRAMPSRRVARPPAAPELGALGSPDLSSLSLAVSRSTDELEIIDEYIKENGFGLDGGQPGPGEGLPRLVSRGAASLSTVTLGPVAPPATPPPWGCPLGRLVSPAPGPGPQPHLVITEQPKQRGMRFRYECEGRSAGSILGESSTEASKTLPAIELRDCGGLREVEVTACLVWKDWPHRVHPHSLVGKDCTDGICRVRLRPHVSPRHSFNNLGIQCVRKKEIEAAIERKIQLGIDPYNAGSLKNHQEVDMNVVRICFQASYRDQQGQMRRMDPVLSEPVYDKKSTNTSELRICRINKESGPCTGGEELYLLCDKVQKEDISVVFSRASWEGRADFSQADVHRQIAIVFKTPPYEDLEIVEPVTVNVFLQRLTDGVCSEPLPFTYLPRDHDSYGVDKKRKRGMPDVLGELNSSDPHGIESKRRKKKPAILDHFLPNHGSGPFLPPSALLPDPDFFSGTVSLPGLEPPGGPDLLDDGFAYDPTAPTLFTMLDLLPPAPPHASAVVCSGGAGAVVGETPGPEPLTLDSYQAPGPGDGGTASLVGSNMFPNHYREAAFGGGLLSPGPEAT
For B2, the binding result in experiment [2] was “binds”.

The values above are taken from paper PMC4695110.
